Some entries share one result that the patent states for a list of compounds.
Molecular target: T1, Human Ca2+ receptor (Homo sapiens, UniProt P41180)
T1 construct: expressed in transfected cells
T1 sequence (P41180 20-1078): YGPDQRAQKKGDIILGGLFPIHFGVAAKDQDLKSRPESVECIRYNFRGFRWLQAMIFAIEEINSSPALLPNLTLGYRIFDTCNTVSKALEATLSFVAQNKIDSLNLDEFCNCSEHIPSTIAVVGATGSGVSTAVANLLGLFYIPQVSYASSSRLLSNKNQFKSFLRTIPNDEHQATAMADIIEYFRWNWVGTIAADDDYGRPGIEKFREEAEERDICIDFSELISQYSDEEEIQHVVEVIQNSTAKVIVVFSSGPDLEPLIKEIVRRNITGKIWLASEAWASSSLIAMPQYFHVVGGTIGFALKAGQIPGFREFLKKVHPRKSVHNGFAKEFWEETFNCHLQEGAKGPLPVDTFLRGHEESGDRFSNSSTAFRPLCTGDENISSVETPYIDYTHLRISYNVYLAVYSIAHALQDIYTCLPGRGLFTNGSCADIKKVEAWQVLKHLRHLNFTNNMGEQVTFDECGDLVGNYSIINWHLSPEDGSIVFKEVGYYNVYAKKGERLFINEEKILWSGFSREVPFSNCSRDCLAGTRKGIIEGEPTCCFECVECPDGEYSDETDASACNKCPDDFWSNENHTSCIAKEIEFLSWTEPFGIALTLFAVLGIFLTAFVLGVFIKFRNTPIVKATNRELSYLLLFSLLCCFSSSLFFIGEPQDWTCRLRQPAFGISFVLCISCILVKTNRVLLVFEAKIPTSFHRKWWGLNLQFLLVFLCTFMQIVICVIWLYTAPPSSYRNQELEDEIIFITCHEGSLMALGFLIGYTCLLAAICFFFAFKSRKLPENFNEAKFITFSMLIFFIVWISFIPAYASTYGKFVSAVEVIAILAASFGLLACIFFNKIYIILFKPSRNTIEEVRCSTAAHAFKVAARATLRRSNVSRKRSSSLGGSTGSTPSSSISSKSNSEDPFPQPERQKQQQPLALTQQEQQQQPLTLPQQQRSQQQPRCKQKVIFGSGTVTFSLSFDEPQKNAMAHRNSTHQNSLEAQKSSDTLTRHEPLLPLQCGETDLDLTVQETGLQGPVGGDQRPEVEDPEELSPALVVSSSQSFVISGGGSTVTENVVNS
Assay: Luciferase reporter assay in CHO cells (ET8-5-5) transfected with human Ca2+ receptor
Assay type: cell-based
Details: CHO ET8-5-5 cells

Row | SMILES | EC50 [µM]
1 | C[C@@H]1CN(C(=O)CCN(CCC(c2ccccc2)c2ccccc2)C(=O)Nc2nc3ccccc3s2)CCN1 [Example 125, (R)-3-(benzo[d]thiazol-2-yl)-1-(3,3-diphenylpropyl)-1-(3-(3-methylpiperazin-1-yl)-3-oxopropyl)urea] | ≤ 10
2 | CSc1ccccc1NC(=O)NCCC(c1ccccc1)c1ccccc1 [Example 18, 1-(3,3-diphenyl-propyl)-3-(2-methylsulphanyl-phenyl)-urea] | ≤ 10
3 | O=C(NCCC(c1ccccc1)c1ccccc1)Nc1ccc(Cl)cc1 [Example 12, 1-(4-chloro-phenyl)-3-(3,3-diphenyl-propyl)-urea] | ≤ 10
4 | CC(C)(C)OC(=O)CCCN(CCC(c1ccccc1)c1ccccc1)C(=O)Nc1nc2ccccc2s1 [Example 101, tert-butyl 4-(3-(benzo[d]thiazol-2-yl)-1-(3,3-diphenylpropyl)ureido)butanoate] | ≤ 10
5 | O=C(NCCC(c1ccccc1)c1ccccc1)Nc1ccc([N+](=O)[O-])cc1 [Example 1, 1-(3,3-diphenyl-propyl)-3-(4-nitro-phenyl)-urea] | ≤ 10
6 | COc1ccc(NC(=O)NCCC(c2ccccc2)c2ccccc2)cc1 [Example 19, 1-(3,3-diphenyl-propyl)-3-(4-methoxy-phenyl)-urea] | ≤ 10
7 | COc1ccc(Br)c(NC(=O)NCCC(c2ccccc2)c2ccccc2)c1 [Example 58, 1-(2-bromo-5-methoxy-phenyl)-3-(3,3-diphenyl-propyl)-urea] | ≤ 10
8 | Cc1ccc(NC(=O)NCCC(c2ccccc2)c2ccccc2)cc1 [Example 20, 1-(3,3-diphenyl-propyl)-3-p-tolyl-urea] | ≤ 10
9 | O=C(CCN(CCC(c1ccccc1)c1ccccc1)C(=O)Nc1nc2ccccc2s1)NC1CCCCC1 [Example 112, 3-(benzo[d]thiazol-2-yl)-1-(3-(cyclohexylamino)-3-oxopropyl)-1-(3,3-diphenylpropyl)urea] | ≤ 10
10 | Cc1ccc(C(CCNC(=O)Nc2cccc(C(=O)O)c2)c2ccc(C)cc2)cc1 [Example 53, 3-[3-(3,3-di-p-tolyl-propyl)-ureido]-benzoic acid] | ≤ 10
11 | CS(=O)(=O)Nc1ccc(-c2csc(NC(=O)N(CCC(=O)O)CCC(c3ccccc3)c3ccccc3)n2)cc1 [Example 113, 3-(1-(3,3-diphenylpropyl)-3-(4-(4-(methylsulfonamido)phenyl)thiazol-2-yl)ureido)propanoic acid] | ≤ 10
12 | CS(=O)(=O)Nc1ccc(-c2nc(NC(=O)N(CCO)CCC(c3ccccc3)c3ccccc3)sc2Cl)cc1 [Example 133, 3-(5-chloro-4-(4-(methylsulfonamido)phenyl)thiazol-2-yl)-1-(3,3-diphenylpropyl)-1-(2-hydroxyethyl)urea] | ≤ 10
13 | O=C(NCCC(c1ccccc1)c1ccccc1)Nc1ccc(Cl)c(C(F)(F)F)c1 [Example 33, 1-(4-chloro-3-trifluoromethyl-phenyl)-3-(3,3-diphenyl-propyl)-urea] | ≤ 10
14 | O=C(O)CCCN(CCC(c1ccccc1)c1ccccc1)C(=O)Nc1nc(-c2ccccc2)cs1 [Example 111, 4-(1-(3,3-diphenylpropyl)-3-(4-phenylthiazol-2-yl)ureido)butanoic acid] | ≤ 10
15 | CC(CN(CCC(c1ccccc1)c1ccccc1)C(=O)Nc1nc2ccccc2s1)C(=O)O (centres unmarked) [Example 122, 3-(3-(benzo[d]thiazol-2-yl)-1-(3,3-diphenylpropyl)ureido)-2-methylpropanoic acid] | ≤ 10
16 | O=C(CCN(CCC(c1ccccc1)c1ccccc1)C(=O)Nc1nc(-c2ccccc2)cs1)N[C@H]1CCCNC1 [Example 93, (S)-1-(3,3-diphenylpropyl)-1-(3-oxo-3-(piperidin-3-ylamino)propyl)-3-(4-phenylthiazol-2-yl)urea] | ≤ 10
17 | O=C(CCN(CCC(c1ccccc1)c1ccccc1)C(=O)Nc1nc(-c2ccccc2)cs1)N[C@@H]1CCCNC1 [Example 102, (R)-1-(3,3-diphenylpropyl)-1-(3-oxo-3-(piperidin-3-ylamino)propyl)-3-(4-phenylthiazol-2-yl)urea] | ≤ 10
18 | CS(=O)(=O)Nc1ccc(-c2csc(NC(=O)N(CCCC(=O)N[C@@H]3CCCNC3)CCC(c3ccccc3)c3ccccc3)n2)cc1 [Example 67, (R)-1-(3,3-diphenylpropyl)-3-(4-(4-(methylsulfonamido)phenyl)thiazol-2-yl)-1-(4-oxo-4-(piperidin-3-ylamino)butyl)urea] | ≤ 10

Row | SMILES | EC50 [µM]
19 | O=C1CC[C@H](NCCN(CCC(c2ccccc2)c2ccccc2)C(=O)Nc2nc(-c3ccccc3)c(Cl)s2)CN1 [Example 142, (S)-3-(5-chloro-4-phenylthiazol-2-yl)-1-(3,3-diphenylpropyl)-1-(2-(6-oxopiperidin-3-ylamino)ethyl)urea] | ≤ 10
20 | N#Cc1ccc(-c2nc(NC(=O)N(CCCC(=O)O)CCC(c3ccccc3)c3ccccc3)sc2Cl)cc1 [Example 92, 4-(3-(5-chloro-4-(4-cyanophenyl)thiazol-2-yl)-1-(3,3-diphenylpropyl)ureido)butanoic acid] | ≤ 10
21 | COc1ccc(CNCCN(CCC(c2ccccc2)c2ccccc2)C(=O)Nc2nc3ccccc3s2)cn1 [Example 154, 3-Benzothiazol-2-yl-1-(3,3-diphenyl-propyl)-1-{2-[(6-methoxy-pyridin-3-ylmethyl)amino]-ethyl}-urea] | ≤ 10
22 | O=C(NCCC(c1ccccc1)c1ccccc1)Nc1cccc(C(=O)O)c1 [Example 56, 3-[3-(3,3-diphenyl-propyl)-ureido]-benzoic acid] | ≤ 10
23 | O=C(Nc1nc2ccccc2s1)N(CCNS(=O)(=O)c1ccc(C(F)(F)F)cc1)CCC(c1ccccc1)c1ccccc1 [Example 173, N-{2-[3-Benzothiazol-2-yl-1-(3,3-diphenylpropyl)-ureido]-ethyl}-4-trifluoromethyl-benzenesulfonamide] | ≤ 10
24 | COC(CNCCN(CCC(c1ccccc1)c1ccccc1)C(=O)Nc1nc2ccccc2s1)OC [Example 153, 3-Benzothiazol-2-yl-1-[2-(2,2-dimethoxy-ethylamino)-ethyl]-1-(3,3-diphenyl-propyl)urea] | ≤ 10
25 | O=C(NCCCCN(CCC(c1ccccc1)c1ccccc1)C(=O)Nc1nc2ccccc2s1)C1CCNCC1 [Example 127, 3-(benzo[d]thiazol-2-yl)-1-(3,3-diphenylpropyl)-1-(4-(piperidine-4-carboxamido)butyl)urea] | ≤ 10
26 | CCOC(=O)CNCCN(CCC(c1ccccc1)c1ccccc1)C(=O)Nc1nc2ccccc2s1 [Example 151, {2-[3-Benzothiazol-2-yl-1-(3,3-diphenyl-propyl)-ureido]-ethylamino}-acetic acid ethyl ester] | ≤ 10
27 | O=C(CCCN(CCC(c1ccccc1)c1ccccc1)C(=O)Nc1nc2ccccc2s1)N[C@@H]1CCCNC1 [Example 71, (R)-3-(benzo[d]thiazol-2-yl)-1-(3,3-diphenylpropyl)-1-(4-oxo-4-(piperidin-3-ylamino)butyl)urea] | ≤ 10
28 | O=C(CCCN(CCC(c1ccccc1)c1ccccc1)C(=O)Nc1nc2ccccc2s1)NC1CCNCC1 [Example 75, 3-(benzo[d]thiazol-2-yl)-1-(3,3-diphenylpropyl)-1-(4-oxo-4-(piperidin-4-ylamino)butyl)urea] | ≤ 10
29 | CC(C)(C)OC(=O)NCCN(CCC(c1ccccc1)c1ccccc1)C(=O)Nc1nc2ccccc2s1 [Example 148, {2-[3-Benzothiazol-2-yl-1-(3,3-diphenyl-propyl)-ureido]-ethyl}-carbamic acid tert-butyl ester] | ≤ 10
30 | CCNC(=O)CCCN(CCC(c1ccccc1)c1ccccc1)C(=O)Nc1nc2ccccc2s1 [Example 85, 3-(benzo[d]thiazol-2-yl)-1-(3,3-diphenylpropyl)-1-(4-(ethylamino)-4-oxobutyl)urea] | ≤ 10
31 | O=C(NCCC(c1ccccc1)c1ccccc1)NCc1ccccc1Cl [Example 21, 1-(2-chloro-benzyl)-3-(3,3-diphenyl-propyl)-urea] | ≤ 10
32 | O=C(O)CCCN(CCC(c1ccccc1)c1ccccc1)C(=O)Nc1cccc(C(=O)O)c1 [Example 65, 3-[3-(3-carboxy-propyl)-3-(3,3-diphenyl-propyl)-ureido]-benzoic acid] | ≤ 10
33 | COc1ccc(NC(=O)NCC(c2ccccc2)c2ccccc2)cc1 [Example 23, 1-(2,2-diphenyl-ethyl)-3-(4-methoxy-phenyl)-urea] | ≤ 10
34 | O=C(CCCN(CCC(c1ccccc1)c1ccccc1)C(=O)Nc1nc(-c2ccccc2)cs1)N1CCNCC1 [Example 88, 1-(3,3-diphenylpropyl)-1-(4-oxo-4-(piperazin-1-yl)butyl)-3-(4-phenylthiazol-2-yl)urea] | ≤ 10
35 | CCOC(=O)c1cccc(NC(=S)NCCC(c2ccccc2)c2ccccc2)c1 [Example 48, 3-[3-(3,3-diphenyl-propyl)-thioureido]-benzoic acid ethyl ester] | ≤ 10
